Reference: patent US20120100361A1, “ANTISEPTIC COMPOSITION FOR ENGINEERING WOOD PRODUCTION, AND ENGINEERING WOOD” (SDS BIOTECH K.K., priority 2009, published 2012)
At least one read-out could not be matched to a standard name with certainty.

Key:
[1] = tested on: Fomitopsis palustris; assay: Test for antiseptic effects of preservative plywood (JIS K1571:2004); type: cell-based; conditions: plywood, urea melamine resin, Fomitopsis palustris
[2] = tested on: Trametes versicolor; assay: as above; type: cell-based; conditions: urea melamine resin
[3] = tested on: fungus cellar soil-bed; assay: Fungus cellar soil-bed test of preservative LVL (JIS K1571:2004); conditions: 25° C., grade 0 sound condition to 5 out of shape due to the decay
[4] = tested on: fungus cellar soil-bed; assay: Fungus cellar soil-bed test of preservative plywood (JIS K1571:2004); conditions: 25° C., grade 0 sound condition to 5 out of shape due to the decay
[5] = tested on: Fomitopsis palustris; assay: Test for antiseptic effects of preservative LVL (JIS K1571:2004); type: cell-based; conditions: phenol resin
[6] = tested on: Trametes versicolor; assay: as above; type: cell-based; conditions: phenol resin
[7] = treated amount 25 g/m^3, six months
[8] = treated amount 50 g/m^3, six months
[9] = treated amount 100 g/m^3, six months
[10] = treated amount 150 g/m^3, six months

Row | SMILES | average rate of decrease in weight ([1]; treated amount 25 g/m^3) | average rate of decrease in weight ([1]; treated amount 50 g/m^3) | average rate of decrease in weight ([1]; treated amount 100 g/m^3) | average rate of decrease in weight ([1]; treated amount 150 g/m^3) | average rate of decrease in weight ([2]; treated amount 25 g/m^3) | average rate of decrease in weight ([2]; treated amount 50 g/m^3) | average rate of decrease in weight ([2]; treated amount 100 g/m^3) | average rate of decrease in weight ([2]; treated amount 150 g/m^3) | Grade average of the decay damage of five test samples [3, 7] | Grade average of the decay damage of five test samples [3, 8] | Grade average of the decay damage of five test samples [3, 9] | Grade average of the decay damage of five test samples [3, 10] | Grade average of the decay damage of five test samples [4, 7] | Grade average of the decay damage of five test samples [4, 8] | Grade average of the decay damage of five test samples [4, 9] | Grade average of the decay damage of five test samples [4, 10] | average rate of decrease in weight ([5]; treated amount 25 g/m^3) | average rate of decrease in weight ([5]; treated amount 50 g/m^3) | average rate of decrease in weight ([5]; treated amount 100 g/m^3) | average rate of decrease in weight ([5]; treated amount 150 g/m^3) | further results
1 | CC(C)(C)C(=O)C(Oc1ccc(Cl)cc1)n1cncn1 (stereo not drawn) [Comparative Example 19, triadimefon] | X (The average rate of decrease in weight was 3% or more.) | X (The average rate of decrease in weight was 3% or more.) | X (The average rate of decrease in weight was 3% or more.) | X (The average rate of decrease in weight was 3% or more.) | X (The average rate of decrease in weight was 3% or more.) | X (The average rate of decrease in weight was 3% or more.) | X (The average rate of decrease in weight was 3% or more.) | X (The average rate of decrease in weight was 3% or more.) | 2.6 | 3.0 | 3.6 | 3.4 | 3.2 | 3.6 | 3.2 | 2.8 | X (The average rate of decrease in weight was 3% or more.) | X (The average rate of decrease in weight was 3% or more.) | X (The average rate of decrease in weight was 3% or more.) | X (The average rate of decrease in weight was 3% or more.) | average rate of decrease in weight ([6]; treated amount 25 g/m^3): X (The average rate of decrease in weight was 3% or more.); average rate of decrease in weight ([6]; treated amount 50 g/m^3): X (The average rate of decrease in weight was 3% or more.); average rate of decrease in weight ([6]; treated amount 100 g/m^3): X (The average rate of decrease in weight was 3% or more.); average rate of decrease in weight ([6]; treated amount 150 g/m^3): X (The average rate of decrease in weight was 3% or more.)
2 | CC1(C)CCC(=Cc2ccc(Cl)cc2)C1(O)Cn1cncn1 (stereo not drawn) [Comparative Example 20, triticonazole] | X (The average rate of decrease in weight was 3% or more.) | X (The average rate of decrease in weight was 3% or more.) | X (The average rate of decrease in weight was 3% or more.) | X (The average rate of decrease in weight was 3% or more.) | X (The average rate of decrease in weight was 3% or more.) | X (The average rate of decrease in weight was 3% or more.) | X (The average rate of decrease in weight was 3% or more.) | X (The average rate of decrease in weight was 3% or more.) | 3.0 | 2.6 | 3.2 | 3.2 | 3.6 | 3.2 | 3.0 | 2.8 | X (The average rate of decrease in weight was 3% or more.) | X (The average rate of decrease in weight was 3% or more.) | X (The average rate of decrease in weight was 3% or more.) | X (The average rate of decrease in weight was 3% or more.) | average rate of decrease in weight ([6]; treated amount 25 g/m^3): X (The average rate of decrease in weight was 3% or more.); average rate of decrease in weight ([6]; treated amount 50 g/m^3): X (The average rate of decrease in weight was 3% or more.); average rate of decrease in weight ([6]; treated amount 100 g/m^3): X (The average rate of decrease in weight was 3% or more.); average rate of decrease in weight ([6]; treated amount 150 g/m^3): X (The average rate of decrease in weight was 3% or more.)
3 | COC(=O)N(OC)c1ccccc1COc1ccn(-c2ccc(Cl)cc2)n1 [Comparative Example 22, pyraclostrobin] | X (The average rate of decrease in weight was 3% or more.) | X (The average rate of decrease in weight was 3% or more.) | X (The average rate of decrease in weight was 3% or more.) | X (The average rate of decrease in weight was 3% or more.) | X (The average rate of decrease in weight was 3% or more.) | X (The average rate of decrease in weight was 3% or more.) | X (The average rate of decrease in weight was 3% or more.) | X (The average rate of decrease in weight was 3% or more.) | 3.0 | 3.0 | 2.8 | 3.2 | 3.2 | 2.8 | 2.8 | 3.2 | X (The average rate of decrease in weight was 3% or more.) | X (The average rate of decrease in weight was 3% or more.) | X (The average rate of decrease in weight was 3% or more.) | X (The average rate of decrease in weight was 3% or more.) | average rate of decrease in weight ([6]; treated amount 25 g/m^3): X (The average rate of decrease in weight was 3% or more.); average rate of decrease in weight ([6]; treated amount 50 g/m^3): X (The average rate of decrease in weight was 3% or more.); average rate of decrease in weight ([6]; treated amount 100 g/m^3): X (The average rate of decrease in weight was 3% or more.); average rate of decrease in weight ([6]; treated amount 150 g/m^3): X (The average rate of decrease in weight was 3% or more.)
4 | N#Cc1c(Cl)c(Cl)c(Cl)c(C#N)c1Cl [Comparative Example 25, chlorothalonil] | X (The average rate of decrease in weight was 3% or more.) | X (The average rate of decrease in weight was 3% or more.) | X (The average rate of decrease in weight was 3% or more.) | X (The average rate of decrease in weight was 3% or more.) | X (The average rate of decrease in weight was 3% or more.) | X (The average rate of decrease in weight was 3% or more.) | X (The average rate of decrease in weight was 3% or more.) | X (The average rate of decrease in weight was 3% or more.) | 3.0 | 3.0 | 3.0 | 3.2 | 2.8 | 2.8 | 2.8 | 2.8 | X (The average rate of decrease in weight was 3% or more.) | X (The average rate of decrease in weight was 3% or more.) | X (The average rate of decrease in weight was 3% or more.) | X (The average rate of decrease in weight was 3% or more.) | average rate of decrease in weight ([6]; treated amount 25 g/m^3): X (The average rate of decrease in weight was 3% or more.); average rate of decrease in weight ([6]; treated amount 50 g/m^3): X (The average rate of decrease in weight was 3% or more.); average rate of decrease in weight ([6]; treated amount 100 g/m^3): X (The average rate of decrease in weight was 3% or more.); average rate of decrease in weight ([6]; treated amount 150 g/m^3): X (The average rate of decrease in weight was 3% or more.)
